These results are taken from PubChem BioAssay AID212 (DTP/NCI, 2004).

The assay deals with BDF1 mice, colon carcinoma 38 sc, T/C %. Description: NCI In Vivo Anticancer Drug Screen. Data for tumor model Colon Carcinoma 38 (subcutaneous) in B6D2F1 (BDF1) mice. As to conditions: for T/C: evaluated on day 20. The gist of the method: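 Compound antitumor activity was assessed in mice carrying transplantable tumors. Survival or tumor size was recorded, and each value is the treated-group measurement divided by that of the vehicle-treated control group.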

The mark [1] stands for this setting: T/C endpoint: median tumor weight (est.), dose: 24.0 mg/kg/injection, schedule: Q07DX002 (ip), vehicle: saline, higher T/C = larger tumour.
Where [2] appears, read: T/C endpoint: median tumor weight (est.), dose: 48.0 mg/kg/injection, schedule: Q07DX002 (ip), vehicle: saline, higher T/C = larger tumour.
Where [3] appears, read: T/C endpoint: median tumor weight (est.), dose: 800.0 mg/kg/injection, schedule: Q07DX002 (ip), vehicle: saline, higher T/C = larger tumour.
The mark [4] stands for this setting: T/C endpoint: median tumor weight (est.), dose: 100.0 mg/kg/injection, schedule: Q07DX002 (ip), vehicle: Klucel (hydroxypropylcellulose) (HPC), higher T/C = larger tumour.
The mark [5] stands for this setting: T/C endpoint: median tumor weight (est.), dose: 200.0 mg/kg/injection, schedule: Q07DX002 (ip), vehicle: saline, higher T/C = larger tumour.
Where [6] appears, read: T/C endpoint: median tumor weight (est.), dose: 400.0 mg/kg/injection, schedule: Q07DX002 (ip), vehicle: Klucel (hydroxypropylcellulose) (HPC), higher T/C = larger tumour.

The list shows only some results of the screen, not a fair sample: it gathers tests that were run many times, whatever their T/C, doses with no T/C, and many T/C values between a quarter and a half above the control. Further doses and runs are listed elsewhere. T/C is the treated group as % of the vehicle group. Schedules are NCI's codes, taken here to give the interval after Q, in days (D) or hours (H), and the number of doses after X. Some T/C values carry the count of animals alive at the toxicity check (mostly the fifth day); without a count, all were alive then. Some entries were tested several times; the results are listed from low to high. Additions like (4×) give the number of equal values in this list. Some entries give survivors of the animals treated and no T/C: the source holds a T/C of zero for them, seemingly a mark for toxic or unscored doses. Survivors were counted at the toxicity check, usually on the fifth day, unless a day is given; later deaths do not show.

As for `O=CC(NC(=O)N(CCCl)N=O)C(O)C(O)C(O)CO` (stereo not drawn), the T/C is, setting by setting: (T/C endpoint: median tumor weight (est.), dose: 1.87 mg/kg/injection, schedule: Q07DX003 (ip), vehicle: saline, higher T/C = larger tumour) 133 % of control; (T/C endpoint: median tumor weight (est.), dose: 2.0 mg/kg/injection, schedule: Q07DX002 (ip), vehicle: saline, higher T/C = larger tumour) 131 % of control; (T/C endpoint: median tumor weight (est.), dose: 3.0 mg/kg/injection, schedule: Q07DX002 (ip), vehicle: saline, higher T/C = larger tumour) 53 [9 of 10 alive on day 20], 68, 82, 83, 84, 95, 101, 116 [9 of 10 alive on day 20], 123, 129, 152 % of control; (T/C endpoint: median tumor weight (est.), dose: 6.0 mg/kg/injection, schedule: Q07DX002 (ip), vehicle: saline, higher T/C = larger tumour) 63 [9 of 10 alive on day 20], 67, 76, 81 [9 of 10 alive on day 20], 94 (2×), 95, 96 (2×), 96 [9 of 10 alive on day 20], 118, 120 % of control; (T/C endpoint: median tumor weight (est.), dose: 12.0 mg/kg/injection, schedule: Q07DX002 (ip), vehicle: saline, higher T/C = larger tumour) 26, 35, 55, 63, 67, 72, 82, 84, 88, 94, 96, 113 % of control; under setting [1], 4 [7 of 10 alive], 13 [8 of 10 alive on day 20], 23, 26, 29, 33, 45 [9 of 10 alive on day 20], 47, 57 % of control. The T/C under setting [2] is 46 % of control [7 of 10 alive on day 20]. The survivor count is 5 of 10 on day 20 under setting [1]; 0 of 10 on day 20, 1 of 10, 1 of 10 on day 20, 4 of 10 on day 20 under setting [2]; 6 of 10 (T/C endpoint: median tumor weight (est.), dose: 48.0 mg/kg/injection, schedule: Q07DX003 (ip), vehicle: saline, higher T/C = larger tumour).

For `Cc1ccccc1CN1C2=NCCN2C(=O)C2=C1CCN(S(=O)(=O)c1ccc(Cl)c(S(N)(=O)=O)c1)C2`, the T/C under setting [3] is 143 % of control. Moreover, under “T/C endpoint: median tumor weight (est.), dose: 3600.0 mg/kg/injection, schedule: Q07DX002 (ip), vehicle: saline, higher T/C = larger tumour”, the survivor count is on record as 6 of 10 on day 20.

For `OCC1OC(n2cnc3c(NO)ncnc32)C(O)C1O` (stereo not drawn), the T/C under setting [4] is 125 and 126 % of control; the T/C (T/C endpoint: median tumor weight (est.), dose: 200.0 mg/kg/injection, schedule: Q07DX002 (ip), vehicle: Klucel (hydroxypropylcellulose) (HPC), higher T/C = larger tumour) is 126 % of control [8 of 10 alive on day 20].

On to `Cc1cc2c(c3oc(C4(C)OC4C4OC4C)cc(=O)c13)C(=O)c1c(O)c(C3CC(C)(N(C)C)C(O)C(C)O3)cc(C3CC(N(C)C)C(O)C(C)O3)c1C2=O` (stereo not drawn), for which the survivor count reads like this: (T/C endpoint: median tumor weight (est.), dose: 1.88 mg/kg/injection, schedule: Q07DX002 (ip), vehicle: Klucel (hydroxypropylcellulose) (HPC), higher T/C = larger tumour) 0 of 10 on day 20; (T/C endpoint: median tumor weight (est.), dose: 3.75 mg/kg/injection, schedule: Q07DX002 (ip), vehicle: Klucel (hydroxypropylcellulose) (HPC), higher T/C = larger tumour) 0 of 10 on day 20; (T/C endpoint: median tumor weight (est.), dose: 7.5 mg/kg/injection, schedule: Q07DX002 (ip), vehicle: Klucel (hydroxypropylcellulose) (HPC), higher T/C = larger tumour) 0 of 10 on day 20; (T/C endpoint: median tumor weight (est.), dose: 15.0 mg/kg/injection, schedule: Q07DX002 (ip), vehicle: Klucel (hydroxypropylcellulose) (HPC), higher T/C = larger tumour) 0 of 10 on day 20; (T/C endpoint: median tumor weight (est.), dose: 30.0 mg/kg/injection, schedule: Q07DX002 (ip), vehicle: Klucel (hydroxypropylcellulose) (HPC), higher T/C = larger tumour) 0 of 10 on day 20; (T/C endpoint: median tumor weight (est.), dose: 58.8 micrograms/kg/injection, schedule: Q07DX002 (ip), vehicle: Klucel (hydroxypropylcellulose) (HPC), higher T/C = larger tumour) 1 of 10 on day 20. For the same compound, the survivor count reads like this: (T/C endpoint: median tumor weight (est.), dose: 117.5 micrograms/kg/injection, schedule: Q07DX002 (ip), vehicle: Klucel (hydroxypropylcellulose) (HPC), higher T/C = larger tumour) 0 of 10 on day 20; (T/C endpoint: median tumor weight (est.), dose: 235.0 micrograms/kg/injection, schedule: Q07DX002 (ip), vehicle: Klucel (hydroxypropylcellulose) (HPC), higher T/C = larger tumour) 0 of 10 on day 20; (T/C endpoint: median tumor weight (est.), dose: 470.0 micrograms/kg/injection, schedule: Q07DX002 (ip), vehicle: Klucel (hydroxypropylcellulose) (HPC), higher T/C = larger tumour) 0 of 10 on day 20; (T/C endpoint: median tumor weight (est.), dose: 940.0 micrograms/kg/injection, schedule: Q07DX002 (ip), vehicle: Klucel (hydroxypropylcellulose) (HPC), higher T/C = larger tumour) 0 of 10 on day 20.

As to `CO[C@H]1C[C@](C)(O)Cc2cc3c(c(O)c21)C(=O)c1c(O)cc2c(c1C3=O)O[C@@H]1O[C@@]2(C)[C@H](O)[C@@H](N(C)C)[C@@H]1O`, the survivor count (T/C endpoint: median survival time, dose: 117.0 mg/kg/injection, schedule: Q07DX003 (sc), vehicle: other, higher T/C = longer survival) is 4 of 10 on day 63; the survivor count (T/C endpoint: median survival time, dose: 188.0 mg/kg/injection, schedule: Q07DX003 (sc), vehicle: other, higher T/C = longer survival) is reported as 5 of 10 on day 63; the survivor count (T/C endpoint: median survival time, dose: 304.0 mg/kg/injection, schedule: Q07DX003 (sc), vehicle: other, higher T/C = longer survival) is listed as 3 of 10 on day 63; the survivor count (T/C endpoint: median tumor weight (est.), dose: 100.0 mg/kg/injection, schedule: Q07DX002 (ip), vehicle: other, higher T/C = larger tumour) is 0 of 8 on day 20. Also, the T/C is 126 and 140 % of control (T/C endpoint: median tumor weight (est.), dose: 3.12 mg/kg/injection, schedule: Q07DX002 (ip), vehicle: other, higher T/C = larger tumour); 125 % of control (T/C endpoint: median tumor weight (est.), dose: 12.5 mg/kg/injection, schedule: Q07DX002 (ip), vehicle: other, higher T/C = larger tumour).

Consider `COc1cc2cc3cc4cc(OC)c(OC)cc4c(C)[n+]3cc2cc1OC` (tested in a mixture with another compound), for which the survivor count under setting [5] is on record as 2 of 10 on day 20; the survivor count (T/C endpoint: median tumor weight (est.), dose: 400.0 mg/kg/injection, schedule: Q07DX002 (ip), vehicle: saline, higher T/C = larger tumour) was 1 of 10 on day 20 and 6 of 10 on day 20.

Turning to `N#Cc1cn(C2OC(CO)C(O)C2O)c2ncnc(N)c12` (stereo not drawn), the survivor count (T/C endpoint: median tumor weight (est.), dose: 0.5 mg/kg/injection, schedule: Q07DX002 (ip), vehicle: saline, higher T/C = larger tumour) is reported as 6 of 10 on day 20 and the survivor count (T/C endpoint: median tumor weight (est.), dose: 4.0 mg/kg/injection, schedule: Q07DX002 (ip), vehicle: saline, higher T/C = larger tumour) was 0 of 10 on day 20.

In the case of `C1OC1CO[C@@H]1CO[C@H]2[C@@H]1OC[C@H]2OCC1CO1` (stereo partly drawn), the survivor count (T/C endpoint: median tumor weight (est.), dose: 800.0 mg/kg/injection, schedule: Q07DX002 (ip), vehicle: suspension in saline, higher T/C = larger tumour) is listed as 0 of 10 on day 20.

For `Cc1cc(N2C(=O)CCSC2=S)ccc1Cl`, the T/C is 125 % of control (T/C endpoint: median tumor weight (est.), dose: 12.5 mg/kg/injection, schedule: Q07DX002 (ip), vehicle: Klucel (hydroxypropylcellulose) (HPC), higher T/C = larger tumour); 135 % of control (T/C endpoint: median tumor weight (est.), dose: 25.0 mg/kg/injection, schedule: Q07DX002 (ip), vehicle: Klucel (hydroxypropylcellulose) (HPC), higher T/C = larger tumour); 149 % of control under setting [4]; 125 % of control under setting [6]. Also, the survivor count under setting [6] is 5 of 10 on day 20 and 6 of 10 on day 20.

Take `Nc1n[n+](-c2ccccc2)no1`: the survivor count (T/C endpoint: median tumor weight (est.), dose: 100.0 mg/kg/injection, schedule: Q07DX002 (ip), vehicle: water, higher T/C = larger tumour) is reported as 0 of 10 on day 20.

On to `OCC1OC(n2cnc3c(Cl)ncnc32)C(O)C1O` (stereo not drawn), for which the T/C (T/C endpoint: median tumor weight (est.), dose: 6.25 mg/kg/injection, schedule: Q07DX002 (ip), vehicle: saline, higher T/C = larger tumour) was 136 % of control; the T/C (T/C endpoint: median tumor weight (est.), dose: 25.0 mg/kg/injection, schedule: Q07DX002 (ip), vehicle: saline, higher T/C = larger tumour) was 143 % of control [8 of 10 alive on day 20]; the T/C (T/C endpoint: median tumor weight (est.), dose: 50.0 mg/kg/injection, schedule: Q07DX002 (ip), vehicle: saline, higher T/C = larger tumour) is 135 % of control [9 of 10 alive on day 20]; the T/C (T/C endpoint: median tumor weight (est.), dose: 100.0 mg/kg/injection, schedule: Q07DX002 (ip), vehicle: saline, higher T/C = larger tumour) was 96 [8 of 10 alive on day 20], 101, 134, 163 % of control; the T/C under setting [5] is 104, 112 [8 of 10 alive on day 20], 136, 159 % of control; the T/C under setting [3] is 141 % of control [9 of 10 alive on day 20]. Besides, under “T/C endpoint: median tumor weight (est.), dose: 12.5 mg/kg/injection, schedule: Q07DX002 (ip), vehicle: saline, higher T/C = larger tumour”, the survivor count is on record as 6 of 10 on day 20.
